Source: PubChem BioAssay AID1224830 (NIAID, 2016)

Screen: 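Genes whose knock-down alters the TNF-alpha reporter response to LPS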 (primary screen)
Cell system: human THP-1 monocytic leukaemia cells, TNF dual-luciferase reporter clone, PMA-differentiated to macrophage-like cells
Knock-down reagent: siRNA pool against human genes, 50 nM
Duration: LPS for 4 h, given about 3 days after siRNA transfection
Challenge: bacterial LPS (TLR4 ligand), 10 ng/ml
Detection: 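TNF firefly reporter luminescence divided by renilla, normalised to the plate median, then turned into a robust z-score for each replicate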
Reading the numbers: TNF reporter robust z-score: higher = stronger TNF reporter response to LPS
Active means: 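a well is active when its z-score exceeds 2.8 or falls below -1.5; control wells carry no call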
Here is a random part of about 18,000 reagents. In the full data, about 2,900 (16%) got an active call. 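Calls are made per well; low scores hint the gene aids the LPS response, high scores that it dampens it.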 Entries without a mark were called inactive. Repeated entries: four replicate wells of each siRNA pool. No sequences are given here.

Knock-down of ZNF658 resulted in: TNF reporter robust z-score -0.08.
Against ZNF658 the deposit lists TNF reporter robust z-score 0.
Depletion of ZNF658 came out at: TNF reporter robust z-score 0.01.
ZNF658 gave TNF reporter robust z-score -1.19.
With knock-down of NDUFV1, the record shows TNF reporter robust z-score 0.54.
NDUFV1 gave TNF reporter robust z-score -0.42.
Against NDUFV1, the values are TNF reporter robust z-score -0.15.
NDUFV1 gave TNF reporter robust z-score 0.13.
After knock-down of POGK, the screen gave TNF reporter robust z-score -0.91.
Silencing of POGK gave: TNF reporter robust z-score -0.37.
Silencing of POGK came out at: TNF reporter robust z-score -0.95.
Against POGK, the entry reads TNF reporter robust z-score -0.63.
Against SAT1, the entry reads TNF reporter robust z-score -0.76.
SAT1 showed TNF reporter robust z-score -0.19.
Depletion of SAT1 resulted in: TNF reporter robust z-score 0.1.
For SAT1 the deposit lists TNF reporter robust z-score 0.5.
FMO1 gave TNF reporter robust z-score 2.38.
FMO1 scored TNF reporter robust z-score 6.73 (active).
Silencing of FMO1 came out at: TNF reporter robust z-score 1.46.
FMO1 gave TNF reporter robust z-score 1.15.
After knock-down of MMP3, the screen gave TNF reporter robust z-score -0.58.
With knock-down of MMP3, the record shows TNF reporter robust z-score -0.43.
MMP3 showed TNF reporter robust z-score -0.49.
With knock-down of MMP3, the screen gave TNF reporter robust z-score -0.55.
After knock-down of PTDSS1, the record shows TNF reporter robust z-score -0.9.
Knock-down of PTDSS1 gave: TNF reporter robust z-score -0.34.
For PTDSS1, the entry reads TNF reporter robust z-score 0.79.
For PTDSS1, the entry reads TNF reporter robust z-score 0.27.
AMBN scored TNF reporter robust z-score 2.32.
AMBN gave TNF reporter robust z-score 0.61.
After knock-down of AMBN the results were TNF reporter robust z-score 2.02.
Against AMBN the deposit lists TNF reporter robust z-score 1.23.
VPREB1 gave TNF reporter robust z-score -0.41.
Depletion of VPREB1 gave: TNF reporter robust z-score 0.43.
VPREB1 showed TNF reporter robust z-score 0.23.
VPREB1 scored TNF reporter robust z-score -0.69.
SLC6A17 gave TNF reporter robust z-score 2.79.
Silencing of SLC6A17 came out at: TNF reporter robust z-score -0.4.
SLC6A17 scored TNF reporter robust z-score -0.02.
Knock-down of SLC6A17 resulted in: TNF reporter robust z-score -0.12.
Silencing of ATR gave: TNF reporter robust z-score -1.85 (active).
After knock-down of ATR, the record shows TNF reporter robust z-score -1.26.
Knock-down of ATR resulted in: TNF reporter robust z-score -1.38.
Against ATR, the values are TNF reporter robust z-score -1.18.
Against FOXD2, the entry reads TNF reporter robust z-score -0.41.
FOXD2 scored TNF reporter robust z-score 0.68.
With knock-down of FOXD2, the screen gave TNF reporter robust z-score 0.08.
For FOXD2, the entry reads TNF reporter robust z-score 0.4.
